# Data: the supplement of paper PMC8728848
# The other results are listed elsewhere or left out.
# B1: PhypaEULS3 (Physcomitrella patens) (protein)
# chain: MLPVRLHCKADPNFNLAAVPGQGPVMVPFSPNDDFQVWYKDVTMSTRVKDETGSSAFSLINKATGQALRHAPEDLAQCLLADYDSNALDQTVLWTMSEDMGQGYCCIRLASQITRNLDVFRGDKKSGGVKEGSPVITFAWKKQDNQIWKMITAILEQKLISEEDLNSAVDHHHHHH
# Key:
# Experiment in all cases: glycan array binding signal (z-score within array); higher = stronger binding
# Conditions in all cases: glycan notation: IUPAC condensed, linker removed
# [1] = target: Glc(b1-6)Glc
# Summary of the method: (§1)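 Glycan array data came from 3228 arrays in the Consortium for Functional Glycomics database, and only arrays with an available protein sequence were kept. Glycan names were put into IUPAC-condensed notation, and columns mapping to the same glycan were averaged. The binding signal is a within-array Z-score, averaged across arrays of one protein sequence run at different concentrations or buffers and across linkers. A negative Z-score can be read as non-binding.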
# [2] = target: GlcA(b1-3)Gal
# Summary of the method: as §1
# [3] = target: GlcA(b1-3)GlcNAc
# Summary of the method: as §1
# [4] = target: GlcA(b1-6)Gal
# Summary of the method: as §1
# [5] = target: GlcA3S(b1-3)Gal(b1-4)GlcNAc(b1-2)Man
# Summary of the method: as §1
# [6] = target: GlcA3S(b1-3)Gal(b1-4)GlcNAc(b1-3)Gal(b1-4)Glc
# Summary of the method: as §1
# [7] = target: GlcNAc(a1-3)Gal(b1-4)GlcNAc
# Summary of the method: as §1
# [8] = target: GlcNAc(a1-4)Gal(b1-3)GlcNAc
# Summary of the method: as §1
# [9] = target: GlcNAc(a1-4)Gal(b1-4)GalNAc
# Summary of the method: as §1
# [10] = target: GlcNAc(a1-4)Gal(b1-4)GlcNAc
# Summary of the method: as §1
# [11] = target: GlcNAc(a1-4)Gal(b1-4)GlcNAc(b1-3)Gal(b1-4)Glc
# Summary of the method: as §1
# [12] = target: GlcNAc(a1-4)Gal(b1-4)GlcNAc(b1-3)Gal(b1-4)GlcNAc
# Summary of the method: as §1
# [13] = target: GlcNAc(a1-4)Gal(b1-4)GlcNAc(b1-3)Gal(b1-4)GlcNAc(b1-3)Gal(b1-4)GlcNAc
# Summary of the method: as §1
# [14] = target: GlcNAc(a1-4)Gal(b1-4)GlcNAc(b1-3)Gal(b1-4)[Fuc(a1-3)]GlcNAc(b1-3)Gal(b1-4)[Fuc(a1-3)]GlcNAc
# Summary of the method: as §1
# [15] = target: GlcNAc(a1-6)Gal(b1-4)GlcNAc
# Summary of the method: as §1
# [16] = target: GlcNAc(b1-2)Gal(b1-3)GalNAc
# Summary of the method: as §1
# [17] = target: GlcNAc(b1-2)Man(a1-3)[GlcNAc(b1-2)Man(a1-6)]Man(b1-4)GlcNAc(b1-4)GlcNAc
# Summary of the method: as §1
# [18] = target: GlcNAc(b1-2)Man(a1-3)[GlcNAc(b1-2)Man(a1-6)]Man(b1-4)GlcNAc(b1-4)[Fuc(a1-6)]GlcNAc
# Summary of the method: as §1
# [19] = target: GlcNAc(b1-2)Man(a1-3)[GlcNAc(b1-4)][GlcNAc(b1-2)Man(a1-6)]Man(b1-4)GlcNAc(b1-4)GlcNAc
# Summary of the method: as §1
# [20] = target: GlcNAc(b1-2)Man(a1-3)[GlcNAc(b1-4)][GlcNAc(b1-2)Man(a1-6)]Man(b1-4)GlcNAc(b1-4)[Fuc(a1-6)]GlcNAc
# Summary of the method: as §1
# [21] = target: GlcNAc(b1-2)[GlcNAc(b1-4)]Man(a1-3)[GlcNAc(b1-2)Man(a1-6)]Man(b1-4)GlcNAc(b1-4)GlcNAc
# Summary of the method: as §1
# [22] = target: GlcNAc(b1-2)[GlcNAc(b1-4)]Man(a1-3)[GlcNAc(b1-4)][GlcNAc(b1-2)Man(a1-6)]Man(b1-4)GlcNAc(b1-4)GlcNAc
# Summary of the method: as §1
# [23] = target: GlcNAc(b1-2)[GlcNAc(b1-4)]Man(a1-3)[GlcNAc(b1-4)][GlcNAc(b1-2)[GlcNAc(b1-6)]Man(a1-6)]Man(b1-4)GlcNAc(b1-4)GlcNAc
# Summary of the method: as §1
# [24] = target: GlcNAc(b1-2)[GlcNAc(b1-4)]Man(a1-3)[GlcNAc(b1-4)][GlcNAc(b1-2)[GlcNAc(b1-6)]Man(a1-6)]Man(b1-4)GlcNAc(b1-4)[Fuc(a1-6)]GlcNAc
# Summary of the method: as §1
# [25] = target: GlcNAc(b1-2)[GlcNAc(b1-6)]Man(a1-6)[GlcNAc(b1-2)Man(a1-3)]Man(b1-4)GlcNAc(b1-4)GlcNAc
# Summary of the method: as §1
# [26] = target: GlcNAc(b1-2)[GlcNAc(b1-6)]Man(a1-6)[GlcNAc(b1-2)Man(a1-3)]Man(b1-4)GlcNAc(b1-4)[Fuc(a1-6)]GlcNAc
# Summary of the method: as §1
# [27] = target: GlcNAc(b1-2)[GlcNAc(b1-6)]Man(a1-6)[GlcNAc(b1-4)][GlcNAc(b1-2)Man(a1-3)]Man(b1-4)GlcNAc(b1-4)GlcNAc
# Summary of the method: as §1
# [28] = target: GlcNAc(b1-3)Fuc
# Summary of the method: as §1
# [29] = target: GlcNAc(b1-3)Gal
# Summary of the method: as §1
# [30] = target: GlcNAc(b1-3)Gal(b1-3)GalNAc
# Summary of the method: as §1
# [31] = target: GlcNAc(b1-3)Gal(b1-4)Glc
# Summary of the method: as §1
# [32] = target: GlcNAc(b1-3)Gal(b1-4)GlcNAc
# Summary of the method: as §1
# [33] = target: GlcNAc(b1-3)Gal(b1-4)GlcNAc(b1-2)Man(a1-3)[GlcNAc(b1-3)Gal(b1-4)GlcNAc(b1-2)Man(a1-6)]Man(b1-4)GlcNAc(b1-4)GlcNAc
# Summary of the method: as §1
# [34] = target: GlcNAc(b1-3)Gal(b1-4)GlcNAc(b1-2)Man(a1-3)[GlcNAc(b1-3)Gal(b1-4)GlcNAc(b1-2)Man(a1-6)]Man(b1-4)GlcNAc(b1-4)[Fuc(a1-6)]GlcNAc
# Summary of the method: as §1
# [35] = target: GlcNAc(b1-3)Gal(b1-4)GlcNAc(b1-2)[GlcNAc(b1-3)Gal(b1-4)GlcNAc(b1-6)]Man(a1-6)[GlcNAc(b1-3)Gal(b1-4)GlcNAc(b1-2)Man(a1-3)]Man(b1-4)GlcNAc(b1-4)GlcNAc
# Summary of the method: as §1
# [36] = target: GlcNAc(b1-3)Gal(b1-4)GlcNAc(b1-3)Gal(b1-4)GlcNAc
# Summary of the method: as §1
# [37] = target: GlcNAc(b1-3)Gal(b1-4)GlcNAc(b1-3)Gal(b1-4)GlcNAc(b1-2)Man(a1-3)[GlcNAc(b1-3)Gal(b1-4)GlcNAc(b1-3)Gal(b1-4)GlcNAc(b1-2)Man(a1-6)]Man(b1-4)GlcNAc(b1-4)GlcNAc
# Summary of the method: as §1
# [38] = target: GlcNAc(b1-3)Gal(b1-4)GlcNAc(b1-3)Gal(b1-4)GlcNAc(b1-2)Man(a1-3)[GlcNAc(b1-3)Gal(b1-4)GlcNAc(b1-3)Gal(b1-4)GlcNAc(b1-2)Man(a1-6)]Man(b1-4)GlcNAc(b1-4)[Fuc(a1-6)]GlcNAc
# Summary of the method: as §1
# [39] = target: GlcNAc(b1-3)Gal(b1-4)GlcNAc(b1-3)Gal(b1-4)GlcNAc(b1-2)[GlcNAc(b1-3)Gal(b1-4)GlcNAc(b1-3)Gal(b1-4)GlcNAc(b1-6)]Man(a1-6)[GlcNAc(b1-3)Gal(b1-4)GlcNAc(b1-3)Gal(b1-4)GlcNAc(b1-2)Man(a1-3)]Man(b1-4)GlcNAc(b1-4)[Fuc(a1-6)]GlcNAc
# Summary of the method: as §1
# [40] = target: GlcNAc(b1-3)Gal(b1-4)GlcNAc(b1-3)Gal(b1-4)GlcNAc(b1-3)Gal(b1-4)GlcNAc(b1-2)Man(a1-3)[GlcNAc(b1-3)Gal(b1-4)GlcNAc(b1-3)Gal(b1-4)GlcNAc(b1-3)Gal(b1-4)GlcNAc(b1-2)Man(a1-6)]Man(b1-4)GlcNAc(b1-4)GlcNAc
# Summary of the method: as §1
# [41] = target: GlcNAc(b1-3)Gal(b1-4)GlcNAc(b1-3)Gal(b1-4)GlcNAc(b1-3)Gal(b1-4)GlcNAc(b1-2)Man(a1-3)[GlcNAc(b1-3)Gal(b1-4)GlcNAc(b1-3)Gal(b1-4)GlcNAc(b1-3)Gal(b1-4)GlcNAc(b1-2)Man(a1-6)]Man(b1-4)GlcNAc(b1-4)[Fuc(a1-6)]GlcNAc
# Summary of the method: as §1
# [42] = target: GlcNAc(b1-3)Gal(b1-4)GlcNAc(b1-3)Gal(b1-4)GlcNAc(b1-3)Gal(b1-4)GlcNAc(b1-2)[GlcNAc(b1-3)Gal(b1-4)GlcNAc(b1-3)Gal(b1-4)GlcNAc(b1-3)Gal(b1-4)GlcNAc(b1-6)]Man(a1-6)[GlcNAc(b1-3)Gal(b1-4)GlcNAc(b1-3)Gal(b1-4)GlcNAc(b1-3)Gal(b1-4)GlcNAc(b1-2)Man(a1-3)]Man(b1-4)GlcNAc(b1-4)[Fuc(a1-6)]GlcNAc
# Summary of the method: as §1
# [43] = target: GlcNAc(b1-3)Gal(b1-4)GlcNAc(b1-3)Gal(b1-4)GlcNAc(b1-3)Gal(b1-4)GlcNAc(b1-3)Gal(b1-4)GlcNAc(b1-2)Man(a1-3)[GlcNAc(b1-3)Gal(b1-4)GlcNAc(b1-3)Gal(b1-4)GlcNAc(b1-3)Gal(b1-4)GlcNAc(b1-3)Gal(b1-4)GlcNAc(b1-2)Man(a1-6)]Man(b1-4)GlcNAc(b1-4)GlcNAc
# Summary of the method: as §1
# [44] = target: GlcNAc(b1-3)Gal(b1-4)GlcNAc(b1-3)Gal(b1-4)GlcNAc(b1-3)Gal(b1-4)GlcNAc(b1-3)Gal(b1-4)GlcNAc(b1-2)Man(a1-3)[GlcNAc(b1-3)Gal(b1-4)GlcNAc(b1-3)Gal(b1-4)GlcNAc(b1-3)Gal(b1-4)GlcNAc(b1-3)Gal(b1-4)GlcNAc(b1-2)Man(a1-6)]Man(b1-4)GlcNAc(b1-4)[Fuc(a1-6)]GlcNAc
# Summary of the method: as §1
# [45] = target: GlcNAc(b1-3)Gal(b1-4)GlcNAc(b1-3)Gal(b1-4)GlcNAc(b1-3)Gal(b1-4)GlcNAc(b1-3)Gal(b1-4)GlcNAc(b1-2)[GlcNAc(b1-3)Gal(b1-4)GlcNAc(b1-3)Gal(b1-4)GlcNAc(b1-3)Gal(b1-4)GlcNAc(b1-3)Gal(b1-4)GlcNAc(b1-6)]Man(a1-6)[GlcNAc(b1-3)Gal(b1-4)GlcNAc(b1-3)Gal(b1-4)GlcNAc(b1-3)Gal(b1-4)GlcNAc(b1-3)Gal(b1-4)GlcNAc(b1-2)Man(a1-3)]Man(b1-4)GlcNAc(b1-4)[Fuc(a1-6)]GlcNAc
# Summary of the method: as §1
binder,measurement,setting,value
B1,glycan array binding signal (z-score),[1],-1.38
same,glycan array binding signal (z-score),[2],-1.49
same,glycan array binding signal (z-score),[3],0.133
same,glycan array binding signal (z-score),[4],-2.24
same,glycan array binding signal (z-score),[5],0.278
same,glycan array binding signal (z-score),[6],-0.623
same,glycan array binding signal (z-score),[7],-0.249
same,glycan array binding signal (z-score),[8],-0.942
same,glycan array binding signal (z-score),[9],-1.15
same,glycan array binding signal (z-score),[10],0.207
same,glycan array binding signal (z-score),[11],0.185
same,glycan array binding signal (z-score),[12],0.005
same,glycan array binding signal (z-score),[13],-0.022
same,glycan array binding signal (z-score),[14],-1.64
same,glycan array binding signal (z-score),[15],-0.941
same,glycan array binding signal (z-score),[16],-1.03
same,glycan array binding signal (z-score),[17],0.309
same,glycan array binding signal (z-score),[18],0.303
same,glycan array binding signal (z-score),[19],1.08
same,glycan array binding signal (z-score),[20],0.097
same,glycan array binding signal (z-score),[21],0.948
same,glycan array binding signal (z-score),[22],0.758
same,glycan array binding signal (z-score),[23],0.259
same,glycan array binding signal (z-score),[24],-0.705
same,glycan array binding signal (z-score),[25],0.239
same,glycan array binding signal (z-score),[26],-0.207
same,glycan array binding signal (z-score),[27],0.306
same,glycan array binding signal (z-score),[28],-1.99
same,glycan array binding signal (z-score),[29],-0.333
same,glycan array binding signal (z-score),[30],-1.76
same,glycan array binding signal (z-score),[31],-0.901
same,glycan array binding signal (z-score),[32],-1.47
same,glycan array binding signal (z-score),[33],0.401
same,glycan array binding signal (z-score),[34],1.67
same,glycan array binding signal (z-score),[35],0.985
same,glycan array binding signal (z-score),[36],-1.12
same,glycan array binding signal (z-score),[37],1.54
same,glycan array binding signal (z-score),[38],0.296
same,glycan array binding signal (z-score),[39],-1.1
same,glycan array binding signal (z-score),[40],-0.487
same,glycan array binding signal (z-score),[41],-1
same,glycan array binding signal (z-score),[42],-1.61
same,glycan array binding signal (z-score),[43],0.245
same,glycan array binding signal (z-score),[44],-0.426
same,glycan array binding signal (z-score),[45],-1.07

# An excerpt of these results, with bars between the fields.
binder | measurement | setting | value
B1 | glycan array binding signal (z-score) | [29] | -0.333
same | glycan array binding signal (z-score) | [30] | -1.76
